Laboratory results: PubChem BioAssay AID652243 (Drosophila RNAi Screening Center, 2013)
Aim: 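Fly genes required for human androgen receptor driven transcription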 (primary screen). Cells: Drosophila S2R+ cells. Reagent: long dsRNA against Drosophila genes. Timing: 72 h (48 h, then 24 h hormone). Challenge: synthetic androgen R1881 at 10 nM for 24 h. Detection: 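Firefly light from an androgen-responsive reporter and Renilla control light per well, raw and unnormalised, for each of two replicates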. Direction: firefly reporter light: higher = more light from androgen-responsive reporter; Renilla control light: higher = more constitutive control signal (cell number, transfection). Active means: 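Hit when the log firefly-to-Renilla ratio dropped or increased by a fixed fold versus the mean of GFP or LacZ controls across duplicate plates; lowering cut given as 1.5 and as 3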. Calls: active = hit: reporter lowered or raised; inactive = no hit.
The screen tested about 24,000 reagents; below is a random part of those with a known target gene and a result. Of all reagents, 246 (1%) were called active. 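Plates not normalised; calls are printed but the firefly/Renilla ratio behind them is not deposited; fold cut for lowering reported inconsistently.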 Raw values vary from plate to plate and are shown uncorrected. Names joined by + are all predicted targets of the reagent. Not given: the amount of reagent.

gene	dsRNA	firefly reporter light, replicate 1	firefly reporter light, replicate 2	Renilla control light, replicate 1	Renilla control light, replicate 2	outcome
CCHa1	DRSC24978	1.32e6	8.63e5	1.09e6	1.09e6	inactive
CG8726	DRSC07250	1.06e6	9.96e5	1.41e6	1.18e6	active
CG8726	DRSC26566	3.10e5	2.48e5	6.16e5	4.90e5	inactive
CG8726	DRSC37054					inactive
CG4607	DRSC18375	4.27e5	6.04e5	3.05e6	3.70e6	inactive
stc	DRSC03620	4.52e5	5.96e5	1.29e6	1.27e6	inactive
nvd	DRSC22139	7.92e5	6.42e5	2.43e6	2.26e6	inactive
nvd	DRSC26328	3.29e5	2.55e5	6.40e5	5.72e5	inactive
CG17380	DRSC15230	2.55e5	2.53e5	2.77e6	3.08e6	inactive
CG10738	DRSC09792	2.41e5	1.48e5	1.82e6	1.54e6	inactive
CG10738	DRSC24408	8.63e5	9.66e5	1.19e6	1.06e6	inactive
CG10738	DRSC39298					inactive
CG9286	DRSC16467	32617	89497	2.34e5	2.45e5	inactive
CG9286	DRSC28102	1.03e6	1.02e6	1.56e6	1.76e6	inactive
lncRNA:CR40629	DRSC38772	9.22e5	7.35e5	1.85e6	1.61e6	inactive
CG13068	DRSC09951	2.31e5	2.05e5	3.72e6	2.82e6	inactive
CG13068	DRSC27150	2.81e5	2.39e5	6.19e5	6.86e5	inactive
Klp64D	DRSC11204	1.96e5	2.78e5	2.29e6	3.64e6	inactive
l(3)mbn	DRSC08793	1.85e5	1.36e5	3.24e5	1.93e5	inactive
Ptp99A	DRSC13939	1.75e6	7.96e5	4.72e6	2.04e6	inactive
Ptp99A	DRSC14319	1.83e5	1.56e5	2.20e6	1.97e6	inactive
Ptp99A	DRSC14320	2.30e5	2.53e5	2.29e6	2.77e6	inactive
Ptp99A	DRSC16803	2.36e5	2.96e5	2.28e6	3.85e6	inactive
Ptp99A	DRSC22125	6.09e5	4.93e5	2.15e6	1.70e6	inactive
Ptp99A	DRSC22477	4.07e5	7.44e5	8.62e5	1.60e6	inactive
Ptp99A	DRSC23033	8.31e5	9.79e5	1.74e6	1.90e6	inactive
Ptp99A	DRSC37009					inactive
hh	DRSC16965	1.35e5	1.63e5	1.95e6	2.31e6	inactive
hh	DRSC29242	2.33e5	2.83e5	1.23e6	1.65e6	active
hh	DRSC39128	8.50e5	9.35e5	1.90e6	1.86e6	inactive
CG32111 (retired record)	DRSC09203	3.13e5	3.48e5	5.85e5	4.72e5	inactive
Sptz	DRSC15758	2.17e5	2.50e5	2.32e6	1.62e6	inactive
Sptz	DRSC27382	5.26e5	6.25e5	9.53e5	9.65e5	inactive
CG33226	DRSC37794	7.46e5	4.91e5	2.18e6	1.13e6	inactive
CG11693	DRSC14353	66952	61082	1.19e6	1.18e6	inactive
CG11693	DRSC28503	5.02e5	6.00e5	9.76e5	1.18e6	inactive
Kank	DRSC05513	2.68e5	3.08e5	2.51e5	2.99e5	inactive
Kank	DRSC05933	1.41e6	1.61e6	2.40e6	2.77e6	inactive
CG2182	DRSC12308	50634	43413	4.84e5	4.06e5	inactive
CG2182	DRSC30052	9.19e5	9.45e5	1.92e6	1.59e6	inactive
CG11696	DRSC19417	97616	75871	8.85e5	7.60e5	inactive
tHMG2	DRSC16182	3.53e5	4.55e5	4.23e6	4.07e6	inactive

Looked up above:
Under “firefly reporter light, replicate 1”, CG8726 [DRSC26566] has 3.10e5
Result for CG11693 [DRSC14353] in “Renilla control light, replicate 1”: 1.19e6
Klp64D [DRSC11204], outcome → inactive
nvd [DRSC26328], Renilla control light, replicate 1 = 6.40e5
Ptp99A [DRSC22477], firefly reporter light, replicate 1 → 4.07e5
For “Renilla control light, replicate 2”, stc [DRSC03620] is entered as 1.27e6

More results:
gene	dsRNA	firefly reporter light, replicate 1	firefly reporter light, replicate 2	Renilla control light, replicate 1	Renilla control light, replicate 2	outcome
brm	DRSC11330	1.14e5	99353	7.76e5	7.27e5	inactive
brm	DRSC26226	4.08e5	5.28e5	3.44e5	4.64e5	inactive
Cubn2	DRSC10561	1.33e5	1.51e5	1.41e6	1.37e6	inactive
Cubn2	DRSC22044	7.30e5	8.06e5	2.05e6	2.08e6	inactive
betaNACtes4	DRSC19801	4.32e5	3.63e5	2.54e6	2.89e6	inactive
CG16837	DRSC04283	3.68e5	4.58e5	1.54e6	1.90e6	inactive
CG16837	DRSC26178	3.73e5	3.19e5	3.72e5	5.60e5	inactive
Ufsp1	DRSC04958	91654	1.07e5	3.25e5	4.74e5	inactive
Ufsp1	DRSC27352	3.26e5	3.09e5	6.56e5	7.83e5	inactive
Fur2	DRSC19817	3.84e5	3.89e5	2.06e6	2.37e6	inactive
Fur2	DRSC39258					inactive
Fur2	DRSC39305					inactive
CG14183	DRSC10182	42822	38784	3.19e5	3.59e5	inactive
Tomosyn	DRSC19365	38751	21172	4.03e5	3.97e5	active
Tomosyn	DRSC19692	4.40e5	3.09e5	3.74e6	3.18e6	inactive
Tomosyn	DRSC19782	1.13e5	77073	7.50e5	6.88e5	inactive
Tomosyn	DRSC19842	4.47e5	3.22e5	2.67e6	1.85e6	inactive
Tomosyn	DRSC25047	4.34e5	3.26e5	7.83e5	4.59e5	inactive
CG5071	DRSC15710	2.45e5	2.96e5	3.18e6	2.62e6	inactive
CG5071	DRSC22570	5.63e5	5.80e5	1.27e6	1.45e6	inactive
CG5071	DRSC24514	4.35e5	8.36e5	6.02e5	8.39e5	inactive
CG5516	DRSC15826	2.08e5	1.85e5	2.92e6	2.69e6	inactive
CG5516	DRSC21753	6.40e5	5.39e5	4.43e5	6.28e5	inactive
CG5516	DRSC27984	6.78e5	5.63e5	1.87e6	1.36e6	inactive
Cdc27	DRSC11112	7.71e5	8.02e5	1.41e6	1.14e6	inactive
Cdc27	DRSC23438	6.42e5	8.20e5	9.63e5	8.28e5	inactive
Cdc27	DRSC38968	4.92e5	5.54e5	1.24e6	1.47e6	inactive
Timp	DRSC17082	1.48e5	1.04e5	1.25e6	9.81e5	inactive
CG13365	DRSC17899	1.53e5	2.17e5	4.61e6	4.30e6	inactive
CG13365	DRSC27043	2.37e5	2.39e5	9.28e5	5.65e5	inactive
moi + Tgs1	DRSC16371	61681	59358	6.43e5	5.26e5	inactive
HisRS	DRSC19986	4.04e5	3.75e5	3.33e6	2.82e6	inactive
